Results of single-concentration screens

Source: ChEMBL document CHEMBL3988442, “University of Dundee, Small-Polar-MMV Screening Library” (2021).

Mtb cholesterol medium: 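Whole-cell growth test on Mycobacterium tuberculosis, read after 4 days in a medium based on cholesterol and the lipid DPPC; the read-out is not stated. Compounds at 50 µM. Direction is inferred from retests: higher values go with more growth inhibition. About 69,000 compounds were tested under these conditions; 0.54% (about 370) showed 50% or more at least once.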
Mtb glucose medium: 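Phenotypic screen: M. tuberculosis growth, glucose 7H9 medium, 3 days; the read-out is not stated. Concentration: 50 µM. Higher reads as more growth inhibition (inferred: compounds with an IC50 in retests scored well above the rest). Size under these conditions: about 69,000 compounds, about 760 of them at 50% or above in at least one test.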

Values are the deposited “Percent Effect”, in %. The controls that fix the scale are not given in the record; negative values are as filed. Compounds were drawn at random from those tested, without regard to their results. Two or more numbers in one place are separate tests of the same structure; such repeats can differ widely.

SMILES | Mtb cholesterol medium | Mtb glucose medium
Cc1[nH]c2ccccc2c1-c1ccnc(N[C@@H](CO)C(C)C)n1 | 12.08 | 26.64
Cc1cc2c(c(-c3cnccn3)c1)OC(CN)C2 (stereo not shown) | -13.91 | -11
COc1cccc(CNCc2c(C)nc3sc(C)cn23)c1OC | 3.135 | 24.92
Cn1ccnc1CN1CCCN(C(=O)c2ccc(Cl)o2)CC1 | 6.103 | -10.67
CCn1ncc2c1NC(=O)C(C#N)C21CCCC1 (stereo not shown) | -11.25 | -21.54
Fc1ccc(C2(CNCCc3cccs3)CCOC2)cc1 (stereo not shown) | -7.596 | 10.77
Cc1ccc(S(=O)(=O)NCc2[nH]ncc2Br)cc1C | 23.29 | 7.106
O=C(C1CCN(c2cccnn2)C1)N1CCOCC1 (stereo not shown) | -23.93 | -21.06
Cc1c(C2SCC(=O)Nc3c2c(O)nn3C2CCCC2)cnn1C (stereo not shown) | -17.66 | 19.08
COCCN(CCOC)C(=O)c1cnn(C)c1-n1c(C)ccc1C | -2.124 | -2.63
CCCn1ncc(CN(Cc2cccnc2)Cc2ccsc2)c1C | 14.8 | -20.52
CC(O)CN1CCN(C(=O)c2cc(Cl)cc3cccnc23)CC1 (stereo not shown) | -1.655 | 10.28
Cc1ccc(S(=O)(=O)Cc2nnc(C)n2C)cc1 | 11.89 | -0.1661
Cc1cc(C(=O)Nc2ccc(OC3CCOCC3)c(C)c2)[nH]n1 | 2.557 and -3.805 | 6.357 and 4.91
Cc1csc(CN(C)CCCOc2cccc(C#N)c2)n1 | 35.38 | 23.82
Cc1nn(C)c2c(N(C)Cc3ccco3)nc(C3CC3)nc12 | 30.5 | 32.02
CN(C)C(=O)c1nc(CN2CC(c3ccccc3)CC2=O)no1 (stereo not shown) | 0.8118 | -17.39 and -4.774
COc1cc(CNC(=O)N(Cc2ccc(F)cc2F)C2CC2)ccn1 | 5.638 | -26.09 and 9.319
Cc1ccc(NC2CCN(C(=O)c3nccc4ccccc34)CC2)nn1 | -0.02692 | 13.33
CC(C)(C)c1nc(CNC2CCN(S(C)(=O)=O)CC2)cs1 | 6.836 | 18.55 and 0.3041
O=C1CC(N(C(=O)c2csc(-c3ccccc3)n2)C2CC2)C(=O)N1 (stereo not shown) | -6.432 | 21.81
[H][C@@]12CC(=O)/C(=C(\C)NC(=O)c3cccs3)[C@]1([H])C2(C)C | -0.2379 | -9.948
COc1c(CNC2CCOc3ccccc32)c(C)nn1C (stereo not shown) | -24.73 | -38.12
Cc1nnc(N2CCOC(C)(C(=O)N(C)C)C2)c2ccccc12 (stereo not shown) | 13.28 | 8.342
CC1(C)COCCN1C(=O)Cc1cc(Cl)c2c(c1)OCCO2 | -4.557 | 6.967
Clc1ccc(CN2CCCCC2Cn2cncn2)c2ncccc12 (stereo not shown) | 2.517 | 18.47
CC(=O)N1CCC(NC(=O)N(C)Cc2c(C)noc2C)CC1 | -23.59 | -21.69
COc1ccc(S(=O)(=O)N2CCn3cnc(COCC4CC4)c3C2)cc1 | -13.63 | -13.86 and -1.178
CCc1cnc(NCC(c2cccnc2)N2CCOCC2)nc1 (stereo not shown) | 2.255 and -5.953 | -17.7
CN1CC(=O)N(c2ccsc2)CC12CCN(Cc1nccn1C)C2 (stereo not shown) | -7.762 and -13.84 | -3.377 and 21.96
CCn1c(C)nnc1SCCn1cc(-c2nccs2)nn1 | 18.35 | -4.578
[H][C@@]12CCN(C(=O)COc3ccccc3)[C@]1([H])CC(=O)N2CCOC | -3.728 | 4.715
O=C1NC2(CCN(C(=O)c3ccc(Cl)cn3)CC2)CC1c1ccccc1 (stereo not shown) | -55.88 | -30.11
CCn1cc(C(=O)NCC(OC)c2cccc(Cl)c2)cn1 (stereo not shown) | 17.53 | 42.08
Cn1nc2c(cc1=O)CN(Cc1nnc(-c3ccco3)o1)CC2 | 2.876 | -13.43
O=C(O)C(F)(F)F.c1cnc(N2CC3(CCN(C4CCOCC4)CC3)c3ccccc32)nc1 | 7.174 | 7.037 and 0.1584
CCc1n[nH]c(C2CN(C(=O)CCOCC(F)(F)F)CCO2)n1 (stereo not shown) | 0.7635 | 1.148
CCOc1ccccc1-n1c(-c2cn(CC)nc2C)n[nH]c1=O | -7.621 | 9.258
O=C(Nc1ccn(Cc2cccc3cccnc23)n1)C1COCCO1 (stereo not shown) | -10.64 | 31.29
CC(C)(C)c1cnc(CN2CCC[C@H]2CO)o1 | 9.994 | 39.38
CN(C)C(=O)c1nnc2ccc(N3CCOCC3)cc2n1 | 3.221 | 7.638
O=C(Cc1ccc2c(c1)CCC2)N1CCCC(n2cccn2)C1 (stereo not shown) | 17.7 | 28.46
CS(=O)(=O)N1CCc2[nH]cnc2C12CCN(C(=O)c1ccc[nH]1)CC2 | 19.23 and 0.7519 | 25.35
CCS(=O)(=O)N1CCc2onc(CNc3ncccn3)c2C1 | -28.11 | 0.6286 and -5.618
Cc1ncsc1CN1CCN(C)C2(CCC(=O)N(CCO)CC2)C1 (stereo not shown) | 11.66 | 2.556
Cc1nc2c(c(N3CCN(c4ncccc4C(N)=O)CC3)n1)CCNC2 | 5.992 | 12.31
CC(C)N1CCC(CC(=O)N2CCN(Cc3nccn3C)CC2)CC1 | 9.807 | 14.91 and -2.962
Cc1cc(C(=O)N2CCN[C@H](C)C2)c2ccc(F)cc2n1 | -31.43 | -35.69
Cc1ccc(S(=O)(=O)N2CSCC2C(=O)N(C)C2CC2)cc1Cl (stereo not shown) | 2.098 | 24.51
O=C(c1ncn2c1CNS(=O)(=O)c1ccccc1-2)N1CCOCC1 | -20.24 | -2.895 and 21.91
COC(=O)c1ccc(Cn2cccc(C(F)(F)F)c2=O)s1 | -7.276 | 2.105 and -17.72
CCCc1nc(NCCCn2ccnc2)c2c(n1)c(C)nn2CC | -9.627 | 11.51
Cc1nn(CC(=O)O)c(C)c1NS(=O)(=O)c1cc2ccccc2s1 | -9.254 | -21.02
O=C(O)C(F)(F)F.[H][C@@]12C[C@@H](C(=O)Nc3cccnc3)CN(S(C)(=O)=O)[C@]1([H])CCO2 | -11.65 | -10.87 and -1.586
CCc1nn(C)c(CC)c1CNC(=O)Nc1cccc2c1CCN2C | -14.29 | -7.471
CN1CCC(c2nnc3ccc(C(=O)NC4CCCC4)cn23)C1.O=C(O)C(F)(F)F (stereo not shown) | -33.1 | -44.76
COc1ccc(-c2cc[nH]n2)cc1CNC1CCCC1 | 4.161 | -3.692
CCC(=O)N1CCCCC1c1nc(O)c2c(n1)CN(S(=O)(=O)CC)CC2 (stereo not shown) | 9.571 and -5.027 | 12.26
OCc1ccc(OCC(F)(F)F)cc1 | -1.957 | 3.507
CSc1nc(C)cc(N2CCC(c3ncc[nH]3)CC2)n1 | 7.278 | 17.09
O=C(Nc1cccnc1)N(Cc1ccccc1)C1CC1 | -8.984 and -1.793 | 19.23
COCCn1cnnc1CCn1ccnc1-c1ccccc1Cl | 12.97 | -5.785
CCN(CC)S(=O)(=O)N1CCCC1c1nnc2n1CCCCC2 (stereo not shown) | 5.882 | -8.864
Cc1nc(C)c(C(=O)N2Cc3ccccc3OCC2Cn2ccnc2)o1 (stereo not shown) | 12.34 | 19.06
CS(=O)(=O)Cc1noc(CN(Cc2ccco2)c2ccccc2)n1 | 0.4967 | 6.741 and 1.318
CC(C)CCN1Cc2c(C(=O)N3CCCC3)nn(C)c2C1.O=C(O)C(F)(F)F | 3.484 | -3.151 and 14.92
O=C(c1cn(-c2cc(N3CCOCC3)ncn2)cn1)N1CCSCC1 | -19.09 | -1.326 and -9.051
OC(COCc1cccs1)CN1CCc2c(ncn2C2CC2)C1 (stereo not shown) | 5.135 | 7.074
Cc1cc(C)n(CC2CN(Cc3nnsc3Cl)CCO2)n1 (stereo not shown) | -18.85 | -20.52
Cc1ccc(C(C)(C)CNC(=O)NC(C)Cn2cncn2)cc1 (stereo not shown) | -2.967 | -0.4112
O=C(NCCn1cccc1)C1CCCN(C2CCCC2)C1 (stereo not shown) | -7.295 | -32.69
CC(C)(C)c1cc(NC(=O)CN(Cc2cccs2)Cc2cccs2)on1 | 1.789 | 17.61 and 20.72
O=C(CC1Cn2ncnc2NC1=O)Nc1cccc(C(F)(F)F)c1 (stereo not shown) | 10.85 | 27.68
Cc1cc(NC(=O)CN2CCn3c(nnc3-c3ccccc3)C2)no1 | -6.339 | -12.19
O=C(N[C@@H]1CN(CCc2ccc(F)cc2)C[C@H]1O)c1cscn1 | -4.318 | 41.91
CN(CCCC#N)C1CCCN(Cc2noc(C3CC3)n2)C1 (stereo not shown) | -78.46 | -45.31 and -8.07
CCOC(=O)[C@H]1CNC[C@@H]1C(F)(F)F | -25.96 | -5.814 and -9.897
O=C(NC[C@H]1OC[C@@H](NC2COC2)[C@@H]1O)c1cccs1 | 5.787 | -0.8614 and -1.82